The record followed here is patent US20050003420.

Chains of the proteins cited; added tags and fusions are not shown. Lines headed by an entry give the natural chain unless they say otherwise; changes in a name come on top.
UniProt P23657: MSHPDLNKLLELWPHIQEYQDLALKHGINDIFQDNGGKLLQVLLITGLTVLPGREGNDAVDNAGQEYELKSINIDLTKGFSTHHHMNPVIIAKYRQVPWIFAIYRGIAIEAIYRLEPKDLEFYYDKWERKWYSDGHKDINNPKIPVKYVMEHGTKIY

What all share (assay): enzyme reaction in vitro
In data set [1] the target is PvuII wild type (UniProt P23657). Particulars: not detectable, data not shown; purified recombinant protein; only the site is given.
Data set [2] addresses PvuII K93R (UniProt P23657). Particulars: NEB buffer 2, 37 C, 1.5 h; purified recombinant protein; protein details: His-tag; only the site is given.
Data set [3] has as its target T1, BsoBI D246C (UniProt P70985).
T1 sequence (looked up, limits assumed): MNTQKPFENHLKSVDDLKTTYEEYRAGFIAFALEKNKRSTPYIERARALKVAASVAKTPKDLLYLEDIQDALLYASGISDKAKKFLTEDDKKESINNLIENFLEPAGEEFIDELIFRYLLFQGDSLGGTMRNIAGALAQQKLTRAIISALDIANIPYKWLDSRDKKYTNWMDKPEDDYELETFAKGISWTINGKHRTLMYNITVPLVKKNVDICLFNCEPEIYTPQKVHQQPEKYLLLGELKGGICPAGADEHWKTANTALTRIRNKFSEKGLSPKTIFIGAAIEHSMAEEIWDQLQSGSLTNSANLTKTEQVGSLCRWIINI
Particulars: purified recombinant protein, only the site is given.

The target in data set [4] is T2, BsoBI D246S (UniProt P70985).
T2 sequence (looked up, limits assumed): T1 sequence (looked up, limits assumed) with C246S
The following applies: purified recombinant protein, only the site is given.

Data set [5] addresses T3, BsoBI D246T (UniProt P70985).
T3 sequence (looked up, limits assumed): T1 sequence (looked up, limits assumed) with C246T
Particulars: purified recombinant protein, only the site is given.

Data set [6] addresses T4, BsoBI M130A/D246A (UniProt P70985).
T4 sequence (looked up, limits assumed): T1 sequence (looked up, limits assumed) with M130A, C246A
Particulars: pZZ1, purified recombinant protein, only the site is given.

Data set [7] has as its target T5, BsoBI D246A (UniProt P70985).
T5 sequence (looked up, limits assumed): T1 sequence (looked up, limits assumed) with C246A
The following applies: purified recombinant protein, only the site is given.

In data set [8] the target is T6, BsoBI pseudorevertant 29e D246A/C317W (UniProt P70985).
T6 sequence (looked up, limits assumed): T1 sequence (looked up, limits assumed) with C246A, C317W
The following applies: pZZ1; purified recombinant protein; only the site is given.

In data set [9] the target is T7, BsoBI restriction endonuclease (UniProt P70985).
T7 sequence (looked up, limits assumed): T1 sequence (looked up, limits assumed) with C246D
Particulars: cleaved with almost equal efficiency to CCCGGG on pZZ1; purified recombinant protein; only the site is given.

Data set [10] has as its target BsoBI pseudorevertant 6c E46V/D61E/S94T/D246A (UniProt P70985). The following applies: pZZ1; purified recombinant protein; protein details: partially purified; only the site is given.
Data set [11] deals with T8, BsoBI pseudorevertant 8d N36K/D246A (UniProt P70985).
T8 sequence (looked up, limits assumed): T1 sequence (looked up, limits assumed) with N36K, C246A
The following applies: pZZ1; purified recombinant protein; protein details: partially purified; only the site is given.

Data set [12] concerns the target T9, BsoBI pseudorevertant 9c (same as 11c) R38S/L62I/D112Y/N169T/L238F/D246A/A248S (UniProt P70985).
T9 sequence (looked up, limits assumed): T1 sequence (looked up, limits assumed) with R38S, L62I, D112Y, N169T, L238F, C246A, A248S
The following applies: pZZ1; purified recombinant protein; only the site is given.

Numbering of substitutions follows the chain as printed. For some of these results: No signal at the amounts used counts as a negative. For some of these results: Protein sequences can lack the tags named with them. For some of these results: A weaker result is weaker than the reference pair of the same experiment. For some of these results: The exact form of at least one protein or probe is not confirmed.

In the case of “CAATTG (double strand) [pTYB1 1270 bp PCR fragment, MfeI site]”, in data set [1], the “activity on this sequence” value is “not active”. Further, the activity on this sequence (ug protein required to cleave) in data set [2] is more than 10.
Turning to “CACTGT (double strand) [pTYB1 1270 bp PCR fragment, PmlI site]”, the “activity on this sequence” value in data set [1] was “not active”. Further, the activity on this sequence (ug protein required to cleave) in data set [2] was more than 10.
“GTACCCGGGGAT (double strand) [pUC19/pZZ1 CCCGGG site]”: the “activity on this sequence” value in data set [3] (cleaved first at low enzyme concentration) is “active”; in [4] (activity comparable to D246A, preferential CCCGGG cleavage), “active”; in data set [5] (about 4-fold lower activity than D246A), “active”; in [6], “active”; in data set [7] (pUC19, 65 C, two preparations), “less active”.
For “GTGCTCGAGGGG (double strand) [pZZ1 CTCGAG site]”, the “activity on this sequence” value in data set [3] (cleaved at higher enzyme concentration) is given as “less active”; in data set [8] it was “not active”; in [4] (not cleaved efficiently) it was “less active”; in data set [9], “active”; in [10], “active”; in data set [5] (not cleaved efficiently) it was “less active”. In addition, the “activity on this sequence” value in data set [6] (only CCCGGG cleavage detected) is listed as “not active”; in data set [11], “active”; in data set [7] (pZZ1, CCCGGG cleaved at least 64 times faster), “not active”; in data set [12] it was “not active”.
